## Percent effect of library compounds

By UniProt entry, the sequences of proteins in these tests, tags left out. Residues count along the entry.
UniProt A4I591, 1-473: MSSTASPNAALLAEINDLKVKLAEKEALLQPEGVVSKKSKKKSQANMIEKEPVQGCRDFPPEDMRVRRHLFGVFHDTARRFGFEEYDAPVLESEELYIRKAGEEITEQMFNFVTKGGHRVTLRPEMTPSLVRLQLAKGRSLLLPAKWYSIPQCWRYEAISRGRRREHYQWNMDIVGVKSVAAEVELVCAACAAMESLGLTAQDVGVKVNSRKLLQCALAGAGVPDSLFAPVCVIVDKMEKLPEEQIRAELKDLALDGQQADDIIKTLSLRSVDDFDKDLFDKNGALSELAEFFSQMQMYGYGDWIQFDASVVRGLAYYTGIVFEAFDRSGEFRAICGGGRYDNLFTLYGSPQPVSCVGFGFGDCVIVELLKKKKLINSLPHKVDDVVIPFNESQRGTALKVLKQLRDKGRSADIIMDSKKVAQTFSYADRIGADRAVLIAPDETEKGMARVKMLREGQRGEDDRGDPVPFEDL

Data taken from ChEMBL document CHEMBL3988442, “University of Dundee, Small-Polar-MMV Screening Library” (2021).

Results are given as percent effect. How 0% and 100% were set is not recorded. Most values in the screen are low, and negative values occur. This is an unselected part of the compounds tested.

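Histidine-tRNA ligase, Leishmania infantum (UniProt A4I591). Enzyme assay of histidyl-tRNA synthetase; the read-out is not stated. Tested at 30 µM. The record gives no direction; compounds that gave an IC50 in retests scored well above the rest, so higher reads as stronger inhibition. The assay is labelled LdHisRS but filed under L. infantum. Size under these conditions: about 69,000 compounds, about 410 of them at 50% or above in at least one test.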

- COc1ccc(-n2cccn2)cc1S(=O)(=O)N1C[C@H](C2CC2)[C@@H](N)C1 | 14.75%
- O=C(c1ccc(Cl)cc1)N1CCC2(CC1)C(=O)Nc1ccccc12 | 22.37%
- O=S(=O)(N1CCCCC1)N1CCOC2(CCCC2)C1 | 17.78%
- CS(=O)(=O)N1CCN(C(=O)Cn2ccc3c(Cl)cccc32)CC1 | 5.714%
- CC(=O)NCCCSC1CCN(c2ccccc2F)C1=O (stereo not drawn) | -4.396%
- CNC(=O)c1cccc(CN2CCN(c3ccncc3)CC2)c1 | 15.22%
- CN1C[C@@H](NC(=O)c2cc(F)cc(F)c2)C[C@H]1C(=O)NCc1ncc[nH]1 | 13.68%
- Cc1csc(N2CCN(CCCN3CCCC3=O)CC2)n1 | 19.18%
- CCO[C@@H]1CO[C@@]2(CCCN(Cc3scnc3C)C2)C1 | 3.81%
- CS(=O)(=O)N1CCCC12CCCN(S(=O)(=O)c1cc(F)cc(F)c1)C2 (stereo not drawn) | 1.887%
- Cc1n[nH]c2nc(-c3cccc(Cl)c3)cc(C(=O)O)c12 | 10%
- Cc1cc(CN(C)C(=O)c2ccc(Cl)cc2N2CCCC2=O)no1 | 5.455%
- Cc1ccccc1C1CCN(CCn2cc(-c3nccn3C)nn2)C1 (stereo not drawn) | 34.29%
- CCOCC(O)CN1CCN(C(=O)c2ccc(OC)cc2)CC1 (stereo not drawn) | 19.23%
- O=C1CC2(CCN(C(=O)Cc3cc4c(cc3Cl)OCCO4)C2)C(=O)N1 (stereo not drawn) | -3.947%
- CCOc1ccc(NC(=O)NCC(C)(O)c2cccs2)cc1 (stereo not drawn) | 15.22%
- CC(=O)N1CCCc2sc(C(=O)Nc3ccc(C)nc3)nc21 | 18%
- Cc1cnn(CC2CN(CCCc3nc4ccccc4o3)CCO2)c1 (stereo not drawn) | 7.965%
- Cc1ccc(-c2nnc(SCC(=O)O)n2-c2ccccc2)cc1 | 10%
- CO[C@H]1CN(C(=O)OC(C)(C)C)CC1NCc1ccn(C)c1 (stereo partly drawn) | 0%
- Cc1ccc(C2CCCCCN2Cc2cn(C)nc2C)cc1 (stereo not drawn) | 24.27%
- O=C(NCc1ccco1)[C@@]12CCO[C@@H]1CCN(c1ncccn1)C2 | 25.71%
- Cc1cccnc1[C@]1(O)CC[C@H]2CN(Cc3cccc(Cl)c3Cl)C[C@H]21 | 10.31%
- CCCNC(=O)CNc1ccccc1OCCC(=O)OC | 16.48%
- Cn1cc(CC2CC(=O)N(Cc3ccc(OC(F)F)cc3)C2=O)cn1 (stereo not drawn) | 9.735%
- Cc1cc(C(=O)NCc2ccc(N3CCCC(C(N)=O)C3)cc2)on1 (stereo not drawn) | 11.3%
- O=C(NCc1ccccc1CO)C1COc2ccccc21 (stereo not drawn) | 0%
- COc1ccccc1N1CCN(C(=O)CCn2nnnc2C)CC1(C)C | 9.091%
- COc1cccc(CCNC(=O)NC(C)C)c1O | 15.97%
- CC(C)c1ccc(NC(=O)Cn2cc(I)cn2)cc1 | 7.895%
- CCn1cnnc1CNC(=O)NC(C)c1ccccn1 (stereo not drawn) | 8.929%
- Cc1noc(C(C)C)c1C(=O)NCCC(=O)N1CCCCC1 | 13.46%
- O=C(c1ccn(-c2ccc(F)cc2)n1)N(CCO)Cc1cccnc1 | -2.667%
- CCc1ccc(NC(C(N)=O)c2ccc(F)cc2)cc1 (stereo not drawn) | 15.04%
- CN(CCOCC1CC1)C(=O)Nc1ccc([S+](C)[O-])c(F)c1 (stereo not drawn) | 5.319%
- CCOCCn1c(=O)[nH]c2cc(C(=O)N(C)Cc3ccno3)ccc21 | 15.09%
- O=C(c1cncc(N2CC[C@@]3(O)CCNC[C@H]3C2)n1)N1CCCC1 | 0%
- Cc1ccc(CN2CC[C@@H](NS(C)(=O)=O)[C@@H]2Cc2ccncc2)o1 | 13.68%
- O=C(c1cccs1)N1CC[C@H]2[C@@H]1CCC(=O)N2c1cccnc1 | 11%
- COc1ccc2nc(NC(=O)c3c(C(=O)O)cnn3C)sc2c1 | 4.762%
- O=C(NS(=O)(=O)Cc1ccon1)c1ccsc1 | 15.79%
- CC(C)NC1CCc2[nH]c(=O)ccc2C1 (stereo not drawn) | 7.692%
- COC(=O)c1ccc(N2CCN(C(=O)c3ccn(C)c(=O)c3)CC2)cc1 | 10.53%
- O=C(Cc1ccc2c(c1)OCCO2)NCCc1nnc2n1CCC2 | 42.86%
- COCCN1C(=O)C2(CCC(C(=O)Nc3ccccn3)CC2)N=C1C (stereo not drawn) | 7.692%
- CCC(=O)NCC(CC)Oc1cccc(F)c1 (stereo not drawn) | 21.98%
- Cn1ccc(C(=O)N2CCC(Cc3cnc4[nH]ccc4c3)C2)n1 (stereo not drawn) | 14.43%
- CC(C)OCCN1CCC(Nc2ncc(Br)cn2)CC1 | 22.35%
- CCc1nnc(Nc2cccc(C3CCN(CC4CC4)CC3)n2)s1 | 14%
- CC(C)c1nc(NC(=O)CCCn2cccc2)n(C)n1 | 12.12%
- CCOc1ccccc1NC(=O)CN(C)Cc1ccccc1Cl | 11.11%
- N#Cc1ccc(S(=O)(=O)N2CSCC2C(=O)NCC(F)(F)F)cc1 (stereo not drawn) | 14.78%
- CCc1nnc(C(C)N2CCc3cncnc3C2)o1 (stereo not drawn) | 5.208%

Repeated from the top, 4 entries:

| compound | percent effect |
|---|---|
| `COc1ccc(-n2cccn2)cc1S(=O)(=O)N1C[C@H](C2CC2)[C@@H](N)C1` | 14.75 |
| `O=C(c1ccc(Cl)cc1)N1CCC2(CC1)C(=O)Nc1ccccc12` | 22.37 |
| `O=S(=O)(N1CCCCC1)N1CCOC2(CCCC2)C1` | 17.78 |
| `CS(=O)(=O)N1CCN(C(=O)Cn2ccc3c(Cl)cccc32)CC1` | 5.714 |